Legend:
in vitro [1] = conditions: pH 7.4
Description: (§1) There are many membranes available on the market that are grouped as cellulosic and polymeric. Taking into account those that are more convenient and economical, two synthetic membranes and their combinations were used. Synthetic PVDF (polyvinylidene difluoride) and cellulose acetate (Table S2) membranes were pre-treated according to the supplier’s instructions. Cellulose membranes were further treated to acquire their lipophilic properties. Thus, they were placed on a flat glass surface and completely coated with IPM (isopropyl myristate) solution. The cellulose membrane was allowed to incubate in the IPM solution for 30 min. After impregnation, the excess IPM solution was drained off, and the membrane was used for the in vitro experiments. To ensure that the procedure was carried out successfully, the cellulose membrane was weighed before and after pretreatment.
(§2) The in vitro permeability profile of each compound was evaluated using the Franz diffusion cell setup (PermeGear, Hellertown, PA, USA). Five distinct artificial membranes were placed between the donor (upper) and receiver (lower) chambers of cells, with an effective diffusion area of 4.9 cm^2 and a receptor volume of 20 mL; 1 mL of APIs solutions were placed in the donor compartment, which was sealed with Parafilm® to prevent any loss of moisture. The acceptor contained degassed PBS at pH 7.4. The procedure was performed under agitation at 90 rpm and at a temperature of 37 °C ± 0.2 °C.
(§3) At specified intervals (t = 2, 3, 4, 6, and 8 h), 0.5 mL of the samples was taken from the receptor compartment and replaced with an equal volume of freshly prewarmed receptor medium. The concentration of each API was quantified using the appropriate HPLC method (Section 4.1) without sample pretreatment. […] Each sample was analyzed in triplicate, and its cumulative release over time was plotted (Figure 2). The steady-state flux (Jss) was determined by plotting the permeation of the API per unit area (μg/cm^2) against time (h) and calculating the slope of the linear portion of the resulting line. […]

in vitro [2] = conditions: pH 7.4; remark: listed apart in the source
Description: as §1, §2, §3

in vitro [3] = conditions: pH 7.4; remark: listed apart in the source
Description: as §1, §2, §3

in vitro [4] = conditions: pH 7.4; remark: listed apart in the source
Description: as §1, §2, §3

in vitro [5] = conditions: pH 7.4; remark: listed apart in the source
Description: as §1, §2, §3

in vitro [6] = conditions: cow
Experimental: Ex vivo experiments were conducted on cow vaginal mucosa sourced from a local slaughterhouse. Tissues with an exposure area of 0.19 cm^2 were placed in a Franz diffusion cell with the epithelial mucosa side facing the donor compartment. In the donor compartment, 200 μL of API’s solution in VFS (pH 4.5) was added (37 °C ± 0.2 °C), while the acceptor was filled with 5 mL of PBS at pH 7.4 (constant stirring at 100 rpm).
Samples were centrifuged at 2000× g for 10 min, and supernatants were analyzed using HPLC as described in Section 4.1.
The procedure for extracting the drug from the tissue was as follows: after the experiment was completed, each tissue was carefully removed from the Franz cell and immersed in 5 mL of methanol. It was then sonicated for 30 min, followed by 10 min of vertexing, another 30 min in the sonicator, and 10 min of vertexing. Finally, the samples were centrifuged for 20 min at 5000× g, and the supernatant was collected for analysis.

[7] = Retention on reversed-phase C4 HPLC column as indication of tissue penetration; type: physicochemical; conditions: ACE C4 150 × 4.6 mm, MeOH-H2O 10:90, 0.5 mL/min, 40 °C
Experimental: Under the given conditions, it was assumed that the stationary phase simulates the tissue while the aqueous mobile phase represents the surrounding space. […] However, it should be clarified that under the present conditions, it was not possible to conduct a global assessment of the phenomenon because not all of the studied substances penetrated the tissue. However, this procedure could be used as an initial indication for the behaviors of potential drug candidates. […] The analysis was carried out under isocratic conditions with a flow rate of 0.5 mL/min and a mobile phase consisting of MeOH-H2O at 10:90 (v/v).

For `CCC[C@@H]1C[C@@H](C(=O)N[C@@H]([C@H]2O[C@H](SC)[C@H](O)[C@@H](O)[C@H]2O)[C@H](C)Cl)N(C)C1` [CLIND, clindamycin], the “Cumulative Amount Permeated, Cellulose (Hydrophilic)” value (in vitro [1]) was 905.9 3rd (±38.8) μg/cm^2, the Papp (in vitro [1]) was 2.5 ×10⁻⁶ cm/s and the “permeation order of the substance, Cellulose (Hydrophilic)” value (in vitro [1]) was 905.9 3rd (±38.8). The “Cumulative Amount Permeated, Impregnated IPM” value (in vitro [2]) was 285.0 3rd (±48) μg/cm^2, the Papp (in vitro [2]) was 0.0833 ×10⁻⁶ cm/s and the “permeation order of the substance, Impregnated IPM” value (in vitro [2]) was 285.0 3rd (±48). The “Cumulative Amount Permeated, PVDF (Hydrophobic)” value (in vitro [3]) was 1510.1 4th (±188.6) μg/cm^2, the Papp (in vitro [3]) was 1.39 ×10⁻⁶ cm/s and the “permeation order of the substance, PVDF (Hydrophobic)” value (in vitro [3]) was 1510.1 4th (±188.6). The “Cumulative Amount Permeated, IPM-Cellulose” value (in vitro [4]) was 815.5 2nd (±85.2) μg/cm^2, the Papp (in vitro [4]) was 3.33 ×10⁻⁶ cm/s and the “permeation order of the substance, IPM-Cellulose” value (in vitro [4]) was 815.5 2nd (±85.2). The “Cumulative Amount Permeated, PVDF-Cellulose” value (in vitro [5]) was 1047.1 1st (±22) μg/cm^2, the Papp (in vitro [5]) was 4.17 ×10⁻⁶ cm/s and the “permeation order of the substance, PVDF-Cellulose” value (in vitro [5]) was 1047.1 1st (±22). The “Cumulative Amount Permeated, Tissue” value (in vitro [6]) was 1197.5 3rd (±159.5) μg/cm^2, the Papp (in vitro [6]) was 5.56 ×10⁻⁶ cm/s and the “Tissue Extraction” value (in vitro [6]) was 0.3 (±0.01) mg. The “permeation order of the substance, Tissue” value (in vitro [6]) was 1197.5 3rd (±159.5) and the “Retention time (tr) in column C4” value [7] was 6.10 min.
